Assay results taken from patent publication US20040072742A1.
Results are given in words; binding and its absence hold for the method and conditions named. Some results given as binding are weak or reduced against the parent protein; the word gives no strength. Where a sequence is shown, tags or fusion partners need not be part of it.

Target: T1, GST-MD36N4 protein (human MD36 C terminal part fused to glutathione S-transferase) (human) (UniProt Q9Y613)
T1 sequence: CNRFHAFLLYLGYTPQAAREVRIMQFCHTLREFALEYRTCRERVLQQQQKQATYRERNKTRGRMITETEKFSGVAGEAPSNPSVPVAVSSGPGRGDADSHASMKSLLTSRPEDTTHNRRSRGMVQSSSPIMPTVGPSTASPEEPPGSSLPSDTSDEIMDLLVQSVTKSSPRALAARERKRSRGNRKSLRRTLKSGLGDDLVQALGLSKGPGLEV
Test: plate binding test: GST-MD36N4 coated on EIA plate, IRAP-His added, anti-Penta-His antibody and ECL detection

B1: IRAP-His (IRAP cytoplasmic domain, residues 1-109, linked to His-tag) (protein, not shown: small tags and cut ends)
chain: METFTNDRLQLPRNMIENSMFEEEPDVVDLAKEPCLHPLEPDEVEYEPRGSRLLVRGLGEHEMDEDEEDYESSAKLLGMSFMNRSSGLRNSATGYRQSPDGTCSVPSAR
- binding: binds
